PubChem BioAssay AID686943 | Drosophila RNAi Screening Center – 2013
Test: 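Fly genes whose loss alters ERK activation after insulin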 (primary screen). Cell system: Drosophila S2R+ haemocyte-like cells expressing YFP-tagged ERK (Rolled). Reagent: long dsRNA against Drosophila genes. Challenge: insulin stimulation versus unstimulated cells; dose and duration not given. Detection: 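Per-plate z-scores of phospho-ERK immunostaining normalised to YFP-tagged ERK, measured with and without insulin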. Scale: replicate 1, z-score of dpERK with insulin and replicate 2, z-score of dpERK with insulin: higher = more active ERK per ERK-YFP after insulin; replicate 1, z-score of dpERK under basal conditions: higher = more basal active ERK per ERK-YFP.
The screen tested about 23,000 reagents; shown is a random part of those that have a named target and a result. 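Extra replicates exist only for a retested subset of genes; insulin dose and duration not given; both raised and lowered dpERK matter.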 The numbers tell different reagents against one gene apart. Names joined by + are all predicted targets of the reagent. Further read-outs or replicates are left out here. Reagent sequences are not shown. Not given: the amount of reagent, the time to read-out.

no.	target gene	reagent	replicate 1, z-score of dpERK with insulin	replicate 2, z-score of dpERK with insulin	replicate 1, z-score of dpERK under basal conditions
1	Np (Notopleural)	1	0.66	0.07	-1.14
2	Np (Notopleural)	2	0.81	0.4	0.22
3	Np (Notopleural)	3	0.18	0.47	-0.54
4	ndl (nudel)	1	-0.28	0.09	0.97
5	Rbp1-like	1	1.01	0.86	-0.43
6	Rbp1-like	2	-0.04	0.4	1.24
7	Rbp1-like	3	0.1	1.09	-0.74
8	Jon25Bi (Jonah 25Bi)	1	-0.68	0.07	0.58
9	CG34273	1	-0.99	-0.38	2.1
10	CG5897	1	0.86	0.53	0.38
11	CG42579	1	-0.66	-0.41	0.78
12	Nadk1b (NAD kinase 1b)	1	0.1	0.27	-0.06
13	Nadk1b (NAD kinase 1b)	2	0.06	0.49	1.58
14	Nadk1b (NAD kinase 1b)	3	0.77	0.29	-0.51
15	Dsor1 (Downstream of raf1)	1	-0.95	-1.47	-1.88
16	PIG-Q (Phosphatidylinositol glycan anchor biosynthesis class Q)	1	-0.46	-1.6	-0.92
17	Psf3 (Partner of Sld Five 3)	1	1.28	0.75	-1.14
18	Psf3 (Partner of Sld Five 3)	2	0.8	1.32	0.24
19	fz2 (frizzled 2)	1	-0.93	-0.04	-0.18
20	fz2 (frizzled 2)	2	-0.36	-0.4	-2.16
21	fz2 (frizzled 2)	3	0.7	-0.13	-1.09
22	CG8435	1	1.28	1.48	1.88
23	CG34345	1	0.75	0.67	2.15
24	Alg14 (ALG14, UDP-N-acetylglucosaminyltransferase subunit)	1	0.34	0.88	-0.44
25	Ir52b (Ionotropic receptor 52b)	1	-0.29	0.37	1.31
26	Tango5 (Transport and Golgi organization 5)	1	0.02	0.22	-1.05
27	CG32163	1	0.62	-0.71	0.04
28	CG32163	2	-0.2	0.16	-0.19
29	CheB38a (Chemosensory protein B 38a)	1	-1.79	-1.95	-0.3
30	CG8543	1	0.18	-0.06	1.25
31	CG8543	2	1.5	0.86	0.5
32	CG16741	1	0.07	0.36	0.03
33	CG5793	1	1.01	-0.27	0.35
34	CG15109	1	0.66	0.08	-1

4 entries from above, ordered by “replicate 1, z-score of dpERK under basal conditions”, lowest first:
target gene	reagent	replicate 1, z-score of dpERK with insulin	replicate 2, z-score of dpERK with insulin	replicate 1, z-score of dpERK under basal conditions
fz2 (frizzled 2)	3	0.7	-0.13	-1.09
Alg14 (ALG14, UDP-N-acetylglucosaminyltransferase subunit)	1	0.34	0.88	-0.44
CG8435	1	1.28	1.48	1.88
CG34345	1	0.75	0.67	2.15

The results go on.
no.	target gene	reagent	replicate 1, z-score of dpERK with insulin	replicate 2, z-score of dpERK with insulin	replicate 1, z-score of dpERK under basal conditions
35	AsnRS-m (Asparaginyl-tRNA synthetase, mitochondrial)	1	0.81	0.4	0.03
36	CG2260	1	0.95	1.19	-0.73
37	CG15208	1	-0.13	0.6	-0.82
38	Ste:CG33238 + Ste:CG33241 + Ste:CG33236 + 11 more	1	-0.12	0.9	1.16
39	Ste:CG33238 + Ste:CG33241 + Ste:CG33236 + 11 more	2	0.76	-0.03	0.09
40	Rpt3 (Regulatory particle triple-A ATPase 3)	1	-3.8	-4.12	-3.84
41	Trmt112 (tRNA methyltransferase subunit 11-2)	1	0.69	-0.08	-0.6
42	CG13841	1	-1.81	0	-1.58
43	Sas10 (Something about silencing 10)	1	-0.17	0	0.39
44	CG15412	1	0.01	0.38	1.08
45	CG16972	1	0.14	0.27	1.36
46	Septin5 (Septin 5)	1	-0.07	0.69	0.57
47	Dph1 (Diphthamide biosynthesis 1)	1	-0.07	-0.65	0.11
48	Tao	1	1.24	-1.07	1.14
49	Tao	2	-1.78	-0.07	1.18
50	Tao	3	1.1	1.34	-0.85
51	MED24 (Mediator complex subunit 24)	1	0.96	0.81	-0.24
52	CG30056	1	0.04	0.33	0.22
53	CG42714	1	-0.8	-0.67	-0.79
54	hfp (half pint)	1	-0.63	-0.21	-0.89
55	hfp (half pint)	2	0.34	0.69	1.16
56	hfp (half pint)	3	0.81	0.03	-0.9
57	Skp2 (S-phase kinase-associated protein 2)	1	0.48	-0.28	-0.75
58	CG11334	1	-0.2	0.35	0.68
59	CG11334	2	0.3	0.19	-0.93
60	Sclp	1	1.82	0.96	-0.25
61	CG30275	1	0.36	0.41	-0.32
62	Pect (Phosphoethanolamine cytidylyltransferase)	1	-0.18	1.66	-0.06
63	Pect (Phosphoethanolamine cytidylyltransferase)	2	0.46	0.82	-1.92
64	MICU3 (Mitochondrial calcium uptake 3)	1	-0.63	0.22	-0.56
65	MICU3 (Mitochondrial calcium uptake 3)	2	-0.21	0.77	-0.6
66	Oatp58Da (Organic anion transporting polypeptide 58Da)	1	1.55	-0.11	-0.69
67	CG9926	1	0.86	0.5	-0.32
68	CG6481	1	0.55	-1	-0.58
69	CG43315	1	1.24	0.37	0.22
70	qkr58E-2 (quaking related 58E-2)	1	-0.21	1.35	-0.43
71	CG12237	1	-0.02	0.04	0.83
72	CG12237	2	0.2	0.21	-0.46
73	Fitm (Fat storage inducing transmembrane protein)	1	-0.65	-0.25	-0.78
